Some of the results follow.
Tests used:
Experiment in all cases: log2 fold change, soluble protein after heating vs DMSO (PISA); higher = thermal stabilisation; K562 lysate, 10 uM; active = over 0.2 and 3.5 SD of the protein, either way, in both replicates (recomputed)
lapatinib = compound: CS(=O)(=O)CCNCc1ccc(-c2ccc3ncnc(Nc4ccc(OCc5cccc(F)c5)c(Cl)c4)c3c2)o1 [lapatinib]
How it was run: (§1)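 Values give the log-two fold change in thermal stability against solvent controls, from duplicates. Crude K562 extract at 1 mg/mL protein, made by dounce homogenisation in PBS pH 7.4 with 1 mM MgCl2, was treated with 10 μM compound for 30 min. After 3 min heating across 48°C-58°C, aliquots were pooled, adjusted to 0.5% NP-40 at 4°C and centrifuged at 21,000xg for 90 min. The supernatant was measured by TMTpro 16plex LC-MS/MS with channel sums equalised.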

By UniProt entry, the sequences of proteins in these tests, tags left out. Where a name states a change or a piece, a line headed by the entry shows the natural chain unless it says otherwise.
UniProt O15155: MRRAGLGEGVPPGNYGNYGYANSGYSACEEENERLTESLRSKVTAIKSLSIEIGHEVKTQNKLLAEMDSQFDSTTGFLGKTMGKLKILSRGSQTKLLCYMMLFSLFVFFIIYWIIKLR
UniProt O14867: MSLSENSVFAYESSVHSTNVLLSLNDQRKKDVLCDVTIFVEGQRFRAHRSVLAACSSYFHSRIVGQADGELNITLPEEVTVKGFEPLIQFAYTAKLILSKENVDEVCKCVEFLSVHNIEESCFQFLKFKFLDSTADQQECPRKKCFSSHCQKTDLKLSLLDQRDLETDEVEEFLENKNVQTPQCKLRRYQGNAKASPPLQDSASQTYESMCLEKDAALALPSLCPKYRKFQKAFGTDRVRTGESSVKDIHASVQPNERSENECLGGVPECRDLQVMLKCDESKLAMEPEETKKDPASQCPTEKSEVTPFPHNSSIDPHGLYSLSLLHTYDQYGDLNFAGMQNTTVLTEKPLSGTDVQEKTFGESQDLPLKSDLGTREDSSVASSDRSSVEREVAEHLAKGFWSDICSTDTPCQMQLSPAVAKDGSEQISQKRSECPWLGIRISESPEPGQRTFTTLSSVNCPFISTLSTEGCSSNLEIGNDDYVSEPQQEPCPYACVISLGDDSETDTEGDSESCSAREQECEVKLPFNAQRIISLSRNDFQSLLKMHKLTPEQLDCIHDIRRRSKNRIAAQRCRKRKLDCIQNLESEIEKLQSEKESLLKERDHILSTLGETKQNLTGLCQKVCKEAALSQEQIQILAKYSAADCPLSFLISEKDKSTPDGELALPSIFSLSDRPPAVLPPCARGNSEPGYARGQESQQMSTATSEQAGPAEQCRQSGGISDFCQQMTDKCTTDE
UniProt P55957: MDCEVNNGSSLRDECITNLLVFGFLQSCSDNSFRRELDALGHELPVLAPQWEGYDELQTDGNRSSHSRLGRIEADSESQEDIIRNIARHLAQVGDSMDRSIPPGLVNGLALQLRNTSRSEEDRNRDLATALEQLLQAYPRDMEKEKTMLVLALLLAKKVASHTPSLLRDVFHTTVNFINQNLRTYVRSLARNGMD
UniProt Q9H0E9, whole entry, looked up: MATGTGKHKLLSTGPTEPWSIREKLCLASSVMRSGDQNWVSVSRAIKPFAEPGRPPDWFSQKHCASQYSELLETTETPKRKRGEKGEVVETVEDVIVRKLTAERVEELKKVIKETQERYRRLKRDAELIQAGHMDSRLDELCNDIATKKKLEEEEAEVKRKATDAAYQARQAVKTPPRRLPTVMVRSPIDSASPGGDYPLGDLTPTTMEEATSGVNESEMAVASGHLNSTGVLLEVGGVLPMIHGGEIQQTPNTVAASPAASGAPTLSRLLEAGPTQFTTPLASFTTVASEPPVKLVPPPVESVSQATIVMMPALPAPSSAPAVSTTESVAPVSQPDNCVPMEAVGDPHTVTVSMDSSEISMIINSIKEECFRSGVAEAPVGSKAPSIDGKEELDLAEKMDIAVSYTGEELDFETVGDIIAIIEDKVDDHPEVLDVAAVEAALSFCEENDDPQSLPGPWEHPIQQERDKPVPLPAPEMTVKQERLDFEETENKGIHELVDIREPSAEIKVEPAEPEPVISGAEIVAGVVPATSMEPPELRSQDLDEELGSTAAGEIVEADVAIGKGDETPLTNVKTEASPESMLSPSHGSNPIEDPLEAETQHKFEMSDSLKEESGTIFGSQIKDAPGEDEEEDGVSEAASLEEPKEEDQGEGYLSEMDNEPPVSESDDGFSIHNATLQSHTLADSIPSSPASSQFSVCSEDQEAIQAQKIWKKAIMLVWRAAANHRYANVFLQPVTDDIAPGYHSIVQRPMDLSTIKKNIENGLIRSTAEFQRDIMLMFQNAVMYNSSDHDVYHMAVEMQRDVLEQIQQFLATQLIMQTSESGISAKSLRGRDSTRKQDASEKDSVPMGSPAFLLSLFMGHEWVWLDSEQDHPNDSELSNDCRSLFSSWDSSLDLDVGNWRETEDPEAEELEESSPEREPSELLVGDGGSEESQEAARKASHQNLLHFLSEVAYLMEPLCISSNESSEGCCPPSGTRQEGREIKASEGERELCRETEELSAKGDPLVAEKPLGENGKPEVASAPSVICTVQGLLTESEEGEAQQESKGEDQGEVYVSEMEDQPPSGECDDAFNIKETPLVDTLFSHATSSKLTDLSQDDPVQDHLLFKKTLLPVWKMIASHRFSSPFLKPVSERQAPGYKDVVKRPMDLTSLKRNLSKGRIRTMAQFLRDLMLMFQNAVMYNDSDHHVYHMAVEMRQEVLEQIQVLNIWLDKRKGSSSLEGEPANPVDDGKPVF
UniProt Q13490, whole entry, looked up: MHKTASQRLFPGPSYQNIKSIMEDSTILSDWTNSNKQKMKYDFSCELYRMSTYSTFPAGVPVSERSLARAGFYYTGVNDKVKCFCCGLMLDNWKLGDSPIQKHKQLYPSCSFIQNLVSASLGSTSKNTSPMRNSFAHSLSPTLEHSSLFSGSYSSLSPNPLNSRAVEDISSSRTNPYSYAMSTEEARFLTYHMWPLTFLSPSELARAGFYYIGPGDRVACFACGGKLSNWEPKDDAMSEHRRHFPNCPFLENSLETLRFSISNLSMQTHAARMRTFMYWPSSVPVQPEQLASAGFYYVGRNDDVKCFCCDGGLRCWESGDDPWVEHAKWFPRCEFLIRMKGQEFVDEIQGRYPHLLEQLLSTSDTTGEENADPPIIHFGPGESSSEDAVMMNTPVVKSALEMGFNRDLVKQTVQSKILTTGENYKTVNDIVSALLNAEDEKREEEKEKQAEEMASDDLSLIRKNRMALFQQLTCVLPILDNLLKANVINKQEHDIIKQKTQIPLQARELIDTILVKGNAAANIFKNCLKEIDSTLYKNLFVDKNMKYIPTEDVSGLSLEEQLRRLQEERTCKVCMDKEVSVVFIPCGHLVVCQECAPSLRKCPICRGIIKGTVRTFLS
UniProt Q9H3K6: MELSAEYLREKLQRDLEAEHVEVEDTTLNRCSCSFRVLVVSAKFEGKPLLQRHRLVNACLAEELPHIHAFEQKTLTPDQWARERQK
UniProt Q8TDN6: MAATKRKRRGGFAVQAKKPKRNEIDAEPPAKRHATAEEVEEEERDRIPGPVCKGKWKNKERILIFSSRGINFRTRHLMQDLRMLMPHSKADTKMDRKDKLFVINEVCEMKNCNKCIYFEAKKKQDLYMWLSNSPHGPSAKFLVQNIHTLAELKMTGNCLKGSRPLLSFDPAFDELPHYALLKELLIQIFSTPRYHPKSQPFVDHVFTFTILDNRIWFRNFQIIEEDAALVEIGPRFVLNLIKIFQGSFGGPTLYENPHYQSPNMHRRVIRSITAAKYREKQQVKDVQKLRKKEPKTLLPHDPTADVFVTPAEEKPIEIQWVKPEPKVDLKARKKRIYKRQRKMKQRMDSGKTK
UniProt Q8N9N5: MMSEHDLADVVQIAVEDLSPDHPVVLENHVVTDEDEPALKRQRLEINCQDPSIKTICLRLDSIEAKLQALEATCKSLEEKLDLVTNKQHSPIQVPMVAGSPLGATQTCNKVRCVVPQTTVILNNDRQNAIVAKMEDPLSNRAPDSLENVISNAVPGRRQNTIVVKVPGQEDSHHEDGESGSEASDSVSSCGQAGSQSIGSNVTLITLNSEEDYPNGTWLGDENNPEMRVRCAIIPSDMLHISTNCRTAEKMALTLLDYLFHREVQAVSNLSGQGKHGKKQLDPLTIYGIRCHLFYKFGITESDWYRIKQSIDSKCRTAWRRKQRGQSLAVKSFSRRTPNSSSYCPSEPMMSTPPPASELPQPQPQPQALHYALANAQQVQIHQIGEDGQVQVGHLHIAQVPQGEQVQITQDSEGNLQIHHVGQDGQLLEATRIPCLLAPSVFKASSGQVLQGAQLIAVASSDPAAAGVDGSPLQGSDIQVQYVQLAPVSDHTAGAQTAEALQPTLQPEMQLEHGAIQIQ
UniProt P46379: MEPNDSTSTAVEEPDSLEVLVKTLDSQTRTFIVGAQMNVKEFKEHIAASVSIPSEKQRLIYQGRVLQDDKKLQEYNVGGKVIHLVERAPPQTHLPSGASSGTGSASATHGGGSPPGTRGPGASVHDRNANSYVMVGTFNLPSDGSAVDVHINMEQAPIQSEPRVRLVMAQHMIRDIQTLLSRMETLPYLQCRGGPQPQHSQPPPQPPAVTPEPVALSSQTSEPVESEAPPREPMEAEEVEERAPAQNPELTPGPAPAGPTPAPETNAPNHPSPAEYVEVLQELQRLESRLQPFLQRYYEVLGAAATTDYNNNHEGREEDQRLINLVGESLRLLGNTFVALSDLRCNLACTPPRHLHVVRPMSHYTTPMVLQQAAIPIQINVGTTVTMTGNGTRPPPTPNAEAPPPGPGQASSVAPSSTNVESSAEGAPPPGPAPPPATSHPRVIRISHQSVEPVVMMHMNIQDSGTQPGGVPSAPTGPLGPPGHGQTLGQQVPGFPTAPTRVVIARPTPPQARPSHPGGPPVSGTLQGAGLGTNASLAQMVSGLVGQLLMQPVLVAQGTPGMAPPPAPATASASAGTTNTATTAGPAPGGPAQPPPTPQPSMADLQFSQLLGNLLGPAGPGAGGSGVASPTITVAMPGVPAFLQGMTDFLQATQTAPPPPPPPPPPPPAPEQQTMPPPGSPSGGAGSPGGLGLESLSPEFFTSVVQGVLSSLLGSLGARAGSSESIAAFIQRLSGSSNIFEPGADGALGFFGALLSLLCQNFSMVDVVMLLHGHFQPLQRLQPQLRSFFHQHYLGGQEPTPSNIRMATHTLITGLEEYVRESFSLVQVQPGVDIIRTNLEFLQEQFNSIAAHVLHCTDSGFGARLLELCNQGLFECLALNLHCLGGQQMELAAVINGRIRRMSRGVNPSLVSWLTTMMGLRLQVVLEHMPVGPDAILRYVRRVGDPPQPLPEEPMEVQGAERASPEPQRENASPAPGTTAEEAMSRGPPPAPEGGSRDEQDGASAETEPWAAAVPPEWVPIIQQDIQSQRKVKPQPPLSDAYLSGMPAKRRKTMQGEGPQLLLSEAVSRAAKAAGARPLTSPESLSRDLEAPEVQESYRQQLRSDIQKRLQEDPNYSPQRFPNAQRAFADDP
UniProt P51572: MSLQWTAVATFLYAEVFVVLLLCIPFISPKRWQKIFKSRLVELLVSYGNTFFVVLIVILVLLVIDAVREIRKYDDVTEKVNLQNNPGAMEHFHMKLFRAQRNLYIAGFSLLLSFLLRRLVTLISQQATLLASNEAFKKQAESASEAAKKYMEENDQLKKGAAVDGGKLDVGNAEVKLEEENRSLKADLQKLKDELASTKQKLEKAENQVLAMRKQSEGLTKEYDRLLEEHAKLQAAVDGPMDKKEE
UniProt P35613: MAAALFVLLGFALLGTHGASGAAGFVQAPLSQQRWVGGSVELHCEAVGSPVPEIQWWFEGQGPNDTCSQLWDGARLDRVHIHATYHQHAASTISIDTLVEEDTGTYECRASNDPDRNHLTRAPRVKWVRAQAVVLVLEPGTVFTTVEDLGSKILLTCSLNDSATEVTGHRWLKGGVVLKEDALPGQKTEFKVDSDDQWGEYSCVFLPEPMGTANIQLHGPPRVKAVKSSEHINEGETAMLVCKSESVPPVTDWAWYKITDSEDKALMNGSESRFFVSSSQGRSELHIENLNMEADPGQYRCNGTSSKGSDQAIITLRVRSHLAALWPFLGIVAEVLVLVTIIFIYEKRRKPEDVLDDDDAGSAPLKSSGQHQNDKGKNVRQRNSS
UniProt Q9UL45: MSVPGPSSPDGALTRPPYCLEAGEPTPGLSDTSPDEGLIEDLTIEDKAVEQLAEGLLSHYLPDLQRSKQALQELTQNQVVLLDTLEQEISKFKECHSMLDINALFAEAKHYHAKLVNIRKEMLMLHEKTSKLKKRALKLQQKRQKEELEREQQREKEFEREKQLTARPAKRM
UniProt Q9UHR4: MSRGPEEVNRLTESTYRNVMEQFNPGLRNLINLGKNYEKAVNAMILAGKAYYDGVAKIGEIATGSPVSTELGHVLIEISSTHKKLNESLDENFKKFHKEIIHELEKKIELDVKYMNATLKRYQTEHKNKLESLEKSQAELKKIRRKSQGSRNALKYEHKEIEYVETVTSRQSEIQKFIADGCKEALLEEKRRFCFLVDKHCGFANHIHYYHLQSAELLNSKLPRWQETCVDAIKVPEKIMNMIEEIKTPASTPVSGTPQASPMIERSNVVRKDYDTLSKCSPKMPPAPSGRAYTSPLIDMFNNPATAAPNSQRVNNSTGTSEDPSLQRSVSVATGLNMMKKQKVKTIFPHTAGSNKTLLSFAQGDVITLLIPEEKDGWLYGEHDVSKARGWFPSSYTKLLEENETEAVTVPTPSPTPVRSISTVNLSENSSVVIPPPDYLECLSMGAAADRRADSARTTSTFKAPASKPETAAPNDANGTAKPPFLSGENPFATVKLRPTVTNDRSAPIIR
UniProt Q6QNY0: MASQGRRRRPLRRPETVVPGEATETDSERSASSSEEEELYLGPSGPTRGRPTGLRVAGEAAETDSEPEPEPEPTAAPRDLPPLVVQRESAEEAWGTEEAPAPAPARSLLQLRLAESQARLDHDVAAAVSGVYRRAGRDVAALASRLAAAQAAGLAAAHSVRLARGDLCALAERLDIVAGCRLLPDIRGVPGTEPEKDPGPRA

pictilisib = compound: CS(=O)(=O)N1CCN(Cc2cc3nc(-c4cccc5[nH]ncc45)nc(N4CCOCC4)c3s2)CC1 [pictilisib]
How it was run: as §1

crizotinib = compound: C[C@@H](Oc1cc(-c2cnn(C3CCNCC3)c2)cnc1N)c1c(Cl)ccc(F)c1Cl [crizotinib]
How it was run: as §1

[1] = compound: C[C@H](C1=CC=C(C=C1)C(=O)NC2=C3C=CNC3=NC=C2)N
How it was run: as §1

duvelisib = compound: C[C@H](Nc1ncnc2nc[nH]c12)c1cc2cccc(Cl)c2c(=O)n1-c1ccccc1 [duvelisib]
How it was run: as §1

gandotinib = compound: Cc1cc(Nc2cc(CN3CCOCC3)c3nc(C)c(Cc4ccc(Cl)cc4F)n3n2)n[nH]1 [gandotinib]
How it was run: as §1

tozasertib = compound: Cc1cc(Nc2cc(N3CCN(C)CC3)nc(Sc3ccc(NC(=O)C4CC4)cc3)n2)n[nH]1 [tozasertib]
How it was run: as §1

doramapimod = compound: Cc1ccc(-n2nc(C(C)(C)C)cc2NC(=O)Nc2ccc(OCCN3CCOCC3)c3ccccc23)cc1 [doramapimod]
How it was run: as §1

bafetinib = compound: Cc1ccc(NC(=O)c2ccc(CN3CC[C@H](N(C)C)C3)c(C(F)(F)F)c2)cc1Nc1nccc(-c2cncnc2)n1 [bafetinib]
How it was run: as §1

[2] = compound: Cc1cccc(CC(=O)N2CCc3c2ccc(-c2cn(C)c4ncnc(N)c24)c3F)n1
How it was run: as §1

nilotinib = compound: Cc1cn(-c2cc(NC(=O)c3ccc(C)c(Nc4nccc(-c5cccnc5)n4)c3)cc(C(F)(F)F)c2)cn1 [nilotinib]
How it was run: as §1

[3] = compound: Cc1nc(Nc2n[nH]c3c2CN(C(=O)N[C@H](CN(C)C)c2ccccc2)C3(C)C)c2sccc2n1
How it was run: as §1

dasatinib = compound: Cc1nc(Nc2ncc(C(=O)Nc3c(C)cccc3Cl)s2)cc(N2CCN(CCO)CC2)n1 [dasatinib]
How it was run: as §1

[4] = compound: Cc1ncc(-c2ccnc(Nc3ccc(S(C)(=O)=O)cc3)n2)n1C(C)C
How it was run: as §1

[5] = compound: Cn1cc(-c2ccc3c(c2)CCN3C(=O)Cc2cccc(C(F)(F)F)c2)c2c(N)ncnc21
How it was run: as §1

quisinostat = compound: Cn1cc(CNCC2CCN(c3ncc(C(=O)NO)cn3)CC2)c2ccccc21 [quisinostat]
How it was run: as §1

tipifarnib = compound: Cn1cncc1[C@@](N)(c1ccc(Cl)cc1)c1ccc2c(c1)c(-c1cccc(Cl)c1)cc(=O)n2C [tipifarnib]
How it was run: as §1

[6] = compound: NC(=O)Nc1cc(-c2cccc(F)c2)sc1C(=O)N[C@H]1CCCNC1
How it was run: as §1

[7] = compound: NC(=O)c1cnc(N[C@@H]2CCCC[C@@H]2N)nc1Nc1cccc(-n2nccn2)c1
How it was run: as §1

[8] = compound: NC1(c2ccc(-c3nc4ccn5c(=O)[nH]nc5c4cc3-c3ccccc3)cc2)CCC1
How it was run: as §1

Target	log2 fold change (lapatinib)	log2 fold change (pictilisib)	log2 fold change (crizotinib)	log2 fold change [1]	log2 fold change (duvelisib)	log2 fold change (gandotinib)	log2 fold change (tozasertib)	log2 fold change (doramapimod)	log2 fold change (bafetinib)	log2 fold change [2]	log2 fold change (nilotinib)	log2 fold change [3]	log2 fold change (dasatinib)	log2 fold change [4]	log2 fold change [5]	log2 fold change (quisinostat)	log2 fold change (tipifarnib)	log2 fold change [6]	log2 fold change [7]	log2 fold change [8]
BET1 (UniProt O15155)	inactive: -0.051	inactive: -0.034	inactive: -0.004	inactive: -0.004	inactive: 0.01	inactive: -0.006	inactive: 0	inactive: 0.03	inactive: -0.056	inactive: 0.03	inactive: 0.038	inactive: 0.052	inactive: -0.015	inactive: -0.011	inactive: 0	inactive: 0.023	inactive: -0.063	inactive: -0.005	inactive: -0.057	inactive: -0.005
BACH1 (UniProt O14867)	inactive: 0.06	inactive: -0.034	inactive: -0.005	inactive: -0.006	inactive: 0.043	inactive: 0.027	inactive: 0.027	inactive: 0.019	inactive: 0	inactive: 0.004	inactive: -0.026	inactive: 0.02	inactive: -0.011	inactive: -0.003	inactive: 0.01	inactive: -0.027	inactive: 0.044	inactive: 0.046	inactive: 0.033	inactive: 0.012
BID isoform 2 (UniProt P55957)	inactive: 0.061	inactive: 0.049	inactive: -0.001	inactive: -0.015	inactive: 0.063	inactive: -0.006	inactive: 0.031	inactive: -0.038	inactive: 0.037	inactive: -0.064	inactive: 0.008	inactive: -0.008	inactive: -0.003	inactive: 0.002	inactive: 0.017	inactive: -0.058	inactive: 0.065	inactive: -0.01	inactive: -0.052	inactive: -0.016
BRD8 isoform 2 (UniProt Q9H0E9)	inactive: 0.032	inactive: 0	inactive: -0.016	inactive: 0.01	inactive: 0.031	inactive: 0.019	inactive: -0.022	inactive: 0.037	inactive: -0.039	inactive: 0.013	inactive: -0.035	inactive: -0.025	inactive: 0.03	inactive: 0.025	inactive: 0.035	inactive: -0.091	inactive: 0.015	inactive: 0	inactive: 0.009	inactive: 0.005
BIRC2 (UniProt Q13490)	inactive: 0.025	inactive: -0.015	inactive: 0.012	inactive: -0.016	inactive: -0.027	inactive: 0.005	inactive: 0.007	inactive: -0.001	inactive: -0.168	inactive: 0.013	inactive: 0.026	inactive: 0.021	inactive: 0.023	inactive: 0.008	inactive: -0.002	inactive: -0.016	inactive: 0.002	inactive: 0.016	inactive: -0.049	inactive: -0.01
BOLA2 (UniProt Q9H3K6)	inactive: -0.038	inactive: -0.035	inactive: 0.02	active: 0.46	inactive: 0.03	inactive: -0.088	inactive: 0.069	inactive: 0.033	inactive: 0.094	inactive: -0.064	inactive: 0.039	inactive: -0.036	inactive: -0.002	inactive: -0.021	inactive: 0.009	inactive: 0.063	inactive: 0.01	inactive: -0.042	inactive: -0.013	inactive: 0.096
BRIX1 (UniProt Q8TDN6)	inactive: -0.017	inactive: -0.01	inactive: -0.002	inactive: 0.007	inactive: 0.001	inactive: 0.01	inactive: -0.031	inactive: -0.037	inactive: -0.022	inactive: 0.001	inactive: 0.009	inactive: 0.002	inactive: -0.017	inactive: 0	inactive: -0.005	inactive: 0.032	inactive: -0.001	inactive: -0.003	inactive: -0.007	inactive: 0.003
BANP (UniProt Q8N9N5)	inactive: -0.115	inactive: 0.008	inactive: -0.009	inactive: 0.036	inactive: -0.027	inactive: -0.097	inactive: -0.019	inactive: 0.02	inactive: -0.151	inactive: 0.099	inactive: 0.077	inactive: -0.147	inactive: -0.014	inactive: 0.013	inactive: -0.065	inactive: -0.027	inactive: 0.064	inactive: 0.057	inactive: 0.052	inactive: 0.014
BAG6 isoform 3 (UniProt P46379)	inactive: -0.002	inactive: -0.02	inactive: -0.019	inactive: 0.035	inactive: 0.016	inactive: -0.074	inactive: -0.018	inactive: -0.05	inactive: 0	inactive: 0.004	inactive: 0.031	inactive: -0.008	inactive: -0.051	inactive: 0	inactive: 0.002	inactive: 0.009	inactive: -0.017	inactive: 0.024	inactive: -0.016	inactive: -0.007
BRD4 (UniProt O60885)	inactive: 0.044	inactive: 0.015	inactive: -0.03	inactive: -0.06	inactive: 0.013	inactive: 0.019	inactive: -0.031	inactive: 0.016	inactive: -0.024	inactive: -0.006	inactive: 0.034	inactive: -0.009	inactive: -0.018	inactive: 0.019	inactive: -0.001	inactive: -0.091	inactive: -0.019	inactive: 0.013	inactive: -0.051	inactive: -0.008
BCAP31 isoform 2 (UniProt P51572)	inactive: -0.005	inactive: 0.014	inactive: 0.099	inactive: -0.059	inactive: 0.007	inactive: 0.03	inactive: -0.003	inactive: -0.059	inactive: 0.005	inactive: -0.007	inactive: 0.004	inactive: 0.001	inactive: 0.016	inactive: 0.007	inactive: -0.013	inactive: 0.096	inactive: 0.008	inactive: -0.023	inactive: -0.003	inactive: 0.014
BSG (UniProt P35613)	inactive: -0.002	inactive: 0.014	inactive: 0.028	inactive: 0.016	inactive: 0.044	inactive: -0.049	inactive: 0.028	inactive: 0.037	inactive: 0.061	inactive: -0.12	inactive: -0.036	inactive: 0.045	inactive: 0.043	inactive: -0.009	inactive: 0.007	inactive: 0.003	inactive: 0.042	inactive: -0.027	inactive: -0.025	inactive: -0.027
BLOC1S6 (UniProt Q9UL45)	inactive: -0.018	inactive: -0.037	inactive: 0.062	inactive: 0.048	inactive: 0.021	inactive: 0.031	inactive: -0.11	inactive: -0.011	inactive: 0.033	inactive: -0.066	inactive: -0.073	inactive: 0.036	inactive: 0.093	inactive: 0.093	inactive: -0.008	inactive: 0.042	inactive: -0.063	inactive: -0.049	inactive: -0.023	inactive: 0.096
BAIAP2L1 (UniProt Q9UHR4)	inactive: 0.017	inactive: -0.022	inactive: 0.017	inactive: 0.023	inactive: -0.003	inactive: 0.008	inactive: 0	inactive: 0.01	inactive: 0.057	inactive: -0.006	inactive: -0.033	inactive: -0.01	inactive: 0.037	inactive: -0.011	inactive: -0.006	inactive: 0.015	inactive: 0	inactive: -0.006	inactive: 0.009	inactive: 0.032
BLOC1S3 (UniProt Q6QNY0)	inactive: 0.019	inactive: -0.007	inactive: 0.002	inactive: -0.026	inactive: -0.014	inactive: 0.081	inactive: -0.023	inactive: 0.03	inactive: -0.047	inactive: -0.018	inactive: -0.058	inactive: 0	inactive: -0.002	inactive: 0.013	inactive: 0.001	inactive: -0.009	inactive: 0.002	inactive: -0.012	inactive: -0.044	inactive: 0.06
BCKDHA (UniProt P12694)	inactive: 0.018	inactive: -0.024	inactive: 0.004	inactive: -0.001	inactive: 0.02	inactive: -0.013	inactive: 0.014	inactive: 0.023	inactive: 0.037	inactive: 0.02	inactive: 0.064	inactive: -0.007	inactive: -0.031	inactive: 0.019	inactive: -0.023	inactive: 0.077	inactive: 0.017	inactive: -0.042	inactive: 0.041	inactive: -0.006

Single values from the list.
log2 fold change (quisinostat) with BET1 (UniProt O15155) reads inactive: 0.023
log2 fold change (duvelisib) with BLOC1S6 (UniProt Q9UL45) reads inactive: 0.021

From the supplement of paper PMC10849652
